Measured values as given in patent US10857167B2, “Use of oligosaccharide compositions to enhance weight gain” (Children's Hospital Medical Center, priority 2015, dated 2020).
The source gives many values for each of these; only a part stands here.

Tested on: distal small bowel gene expression
Assay: RNA sequencing / transcriptional analysis of small bowel 56 days after ICR (2′-FL signature response)
Format: in vivo, mouse
Text: Luminal small bowel contents were expressed into AllProtect Tissue Reagent (Qiagen Inc, CA). Bacterial DNA was extracted using the AllPrep DNA/RNA Mini Kit (Qiagen Inc, CA), according to kit instructions and prior to sequencing (described below). Small bowel tissue samples for RNA were placed into RNA Later (Life Technologies, NY). RNA extraction was accomplished following Qiagen RNeasy Plus Kit instruction (Qiagen Inc, CA). All nucleic acid samples were then stored at -80 Celsius until sequenced (described below). Transcriptional analysis was carried out on resected and harvested small bowel samples obtained from operated mice taken to 8 weeks. Murine RNA sequencing libraries were prepared from approximately 1.5 μg RNA using the TruSeq RNA Sample Preparation Kit (Illumina, Calif.) and sequenced using the HiSeq 2000 Sequencing System (Illumina, Calif.) with single-end 50 bp reads. Following removal of primers and barcodes, sequences were aligned to the mm10 genome using reference annotations from UCSC (Rosenbloom et al. (2015) Nucleic acids research 43: […]-681) (n=36,186 entities). Aligned reads were quantified and used to compute reads per kilobase per million mapped reads (RPKM); raw counts were then normalized using the DESeq algorithm and each harvested sample was baselined to its own resected sample. A filter was applied to the data, requiring at least three reads in all samples of at least one of the four experimental conditions (n=14,489 entities). The data discussed in this publication have been deposited in NCBI's Gene Expression Omnibus and are accessible through NCBI Gene Expression Omnibus (GEO) Series accession number GSE72590. Edgar et al. (2002) Nucleic acids research 30: 207-210. In order to characterize the impact of 2'-FL supplementation while accounting for the effect of ileoecal resection, a t-test was applied between resected and harvested samples within control and experimental animals. Significance was set at a p-value of ≤0.05 and a fold change of 3, which generated 2,576 differentially regulated entities across two comparisons. Gene set unions and intersections of the control and experimental gene sets were identified through Venn diagrams. From the master list, the gene list specific to animals supplemented with 2'-FL were removed in order to identify genes differentially regulated only by ICR (n=546 entities); this gene set characterizes the adaptive response. Further, the 2'-FL response (n=2,030 entities) was identified by removing the adaptive response signature described above from the master list, leaving only genes regulated by 2'-FL supplementation after ICR which were not found in the non-supplemented adaptive response. Heatmaps were generated using hierarchical clustering with the Pearson's Centered distance metric and the average linkage rule; both entities and samples were clustered. All genomic analyses described above were performed in Strand NGS (Strand Life Sciences, CA). Gene list functional enrichment was initially discovered using ToppFun, a member of the ToppGene Suite. Chen et al. (2009) Nucleic acids research 37: […]-311. No statistical correction was selected. Gene lists were further analyzed using ClueGO, a plugin for Cytoscape designed to decipher functionally grouped gene ontology and pathway annotation networks. Bindea et al. (2009) Bioinformatics 25: 1091-1093. At the time of data analysis, the annotation files were updated from sources to Jan. 1, 2015. “GO Term Fusion” was enabled to manage ontologic term redundancy and network specificity was set to medium. Results were restricted to pathways with p≤0.05 using Benjamini-Hochberg correction and Kappa scoring was set to 0.4. Biocyc annotations were assigned a rectangle, gene ontology biologic processes were assigned an ellipse, and […] annotations were assigned a diamond shape. No meaning was assigned to size or color. […]

C[C@@H]1O[C@@H](O[C@H]2[C@H](O[C@H]3[C@H](O)[C@@H](O)C(O)O[C@@H]3CO)O[C@H](CO)[C@H](O)[C@@H]2O)[C@@H](O)[C@H](O)[C@@H]1O (stereo partly drawn) [2′-FL, 2′-fucosyllactose]
Fold Change (Pre- to Post-op) (gene Npcd): −4.682 | Fold Change (Pre- to Post-op) (gene Npnt): −3.768 | Fold Change (Pre- to Post-op) (gene Npr2): −4.111 | Fold Change (Pre- to Post-op) (gene Nptxr): −4.5 | Fold Change (Pre- to Post-op) (gene Nrip1): −6.868 | Fold Change (Pre- to Post-op) (gene Nrip2): −3.525 | Fold Change (Pre- to Post-op) (gene Nrp2): −5.453 | Fold Change (Pre- to Post-op) (gene Nrxn1): −4.233 | Fold Change (Pre- to Post-op) (gene Nsf): −3.278 | Fold Change (Pre- to Post-op) (gene Ntn1): −3.497 | Fold Change (Pre- to Post-op) (gene Ntsr1): −5.175 | Fold Change (Pre- to Post-op) (gene Nuak1): −4.597 | Fold Change (Pre- to Post-op) (gene Numa1): −3.183 | Fold Change (Pre- to Post-op) (gene Numbl): −3.947 | Fold Change (Pre- to Post-op) (gene Nup210): −3.493 | Fold Change (Pre- to Post-op) (gene Nup214): −3.254 | Fold Change (Pre- to Post-op) (gene Obsl1): −7.607 | Fold Change (Pre- to Post-op) (gene Ocrl): −3.017 | Fold Change (Pre- to Post-op) (gene Ocstamp): −3.642 | Fold Change (Pre- to Post-op) (gene Olfml2a): −4.749 | Fold Change (Pre- to Post-op) (gene Orm1): −3.4 | Fold Change (Pre- to Post-op) (gene Osbpl7): −3.933 | Fold Change (Pre- to Post-op) (gene P2rx2): −7.423 | Fold Change (Pre- to Post-op) (gene Pacs1): −12.77 | Fold Change (Pre- to Post-op) (gene Pacs2): −3.311 | Fold Change (Pre- to Post-op) (gene Pag1): −5.175 | Fold Change (Pre- to Post-op) (gene Pak6): −3.706 | Fold Change (Pre- to Post-op) (gene Palld): −5.022 | Fold Change (Pre- to Post-op) (gene Pappa): −4.378 | Fold Change (Pre- to Post-op) (gene Paqr3): −3.604 | Fold Change (Pre- to Post-op) (gene Pard3b): −3.71 | Fold Change (Pre- to Post-op) (gene Patl1): −4.295 | Fold Change (Pre- to Post-op) (gene Pbx1): −3.808 | Fold Change (Pre- to Post-op) (gene Pbx3): −3.437 | Fold Change (Pre- to Post-op) (gene Pcdh1): −4.568 | Fold Change (Pre- to Post-op) (gene Pcdh20): −5.134 | Fold Change (Pre- to Post-op) (gene Pcdha2): −3.906 | Fold Change (Pre- to Post-op) (gene Pcdhga1): −3.557 | Fold Change (Pre- to Post-op) (gene Pcdhga2): −3.732 | Fold Change (Pre- to Post-op) (gene Pcdhga3): −3.45 | Fold Change (Pre- to Post-op) (gene Pcdhga7): −3.724 | Fold Change (Pre- to Post-op) (gene Pcdhga8): −3.616 | Fold Change (Pre- to Post-op) (gene Pcdhga11): −3.631 | Fold Change (Pre- to Post-op) (gene Pcdhga12): −3.372 | Fold Change (Pre- to Post-op) (gene Pcdhgb6): −4.149 | Fold Change (Pre- to Post-op) (gene Pcdhgc3): −4.376 | Fold Change (Pre- to Post-op) (gene Pcdhgc4): −4.034 | Fold Change (Pre- to Post-op) (gene Pcnt): −3.968 | Fold Change (Pre- to Post-op) (gene Pcnxl3): −5.828 | Fold Change (Pre- to Post-op) (gene Pcp2): −4.218 | Fold Change (Pre- to Post-op) (gene Pcsk5): −4.34 | Fold Change (Pre- to Post-op) (gene Pcsk6): −4.434 | Fold Change (Pre- to Post-op) (gene Pde2a): −4.009 | Fold Change (Pre- to Post-op) (gene Pde4a): −4.609 | Fold Change (Pre- to Post-op) (gene Pde7b): −4.931 | Fold Change (Pre- to Post-op) (gene Pde11a): −6.954 | Fold Change (Pre- to Post-op) (gene Pdgfrb): −6.671 | Fold Change (Pre- to Post-op) (gene Pds5a): −3.546 | Fold Change (Pre- to Post-op) (gene Pear1): −5.721 | Fold Change (Pre- to Post-op) (gene Pecam1): −4.848 | Fold Change (Pre- to Post-op) (gene Peli2): −3.546 | Fold Change (Pre- to Post-op) (gene Pelp1): −3.18 | Fold Change (Pre- to Post-op) (gene Per1): −4.285 | Fold Change (Pre- to Post-op) (gene Pfkfb3): −3.197 | Fold Change (Pre- to Post-op) (gene Pglyrp2): −4.794 | Fold Change (Pre- to Post-op) (gene Phactr1): −3.566 | Fold Change (Pre- to Post-op) (gene Phactr4): −4.611 | Fold Change (Pre- to Post-op) (gene Phc1): −7.424 | Fold Change (Pre- to Post-op) (gene Phf2): −5.11 | Fold Change (Pre- to Post-op) (gene Phf3): −3.298 | Fold Change (Pre- to Post-op) (gene Phf8): −3.544 | Fold Change (Pre- to Post-op) (gene Pi4ka): −3.286 | Fold Change (Pre- to Post-op) (gene Pianp): −7.763 | Fold Change (Pre- to Post-op) (gene Piezo1): −4.33 | Fold Change (Pre- to Post-op) (gene Pik3ap1): −8.643 | Fold Change (Pre- to Post-op) (gene Pik3cg): −4.03 | Fold Change (Pre- to Post-op) (gene Pik3r1): −3.669 | Fold Change (Pre- to Post-op) (gene Pik3r5): −3.531 | Fold Change (Pre- to Post-op) (gene Pip4k2b): −3.317 | Fold Change (Pre- to Post-op) (gene Pip5k1c): −3.235 | Fold Change (Pre- to Post-op) (gene Pitpnc1): −4.434 | Fold Change (Pre- to Post-op) (gene Pkd1): −3.65 | Fold Change (Pre- to Post-op) (gene Pkd2): −3.478 | Fold Change (Pre- to Post-op) (gene Pknox2): −4.43 | Fold Change (Pre- to Post-op) (gene Plagl2): −3.073 | Fold Change (Pre- to Post-op) (gene Plbd2): −3.329 | Fold Change (Pre- to Post-op) (gene Plcb2): −3.046 | Fold Change (Pre- to Post-op) (gene Plcb4): −6.88 | Fold Change (Pre- to Post-op) (gene Plch2): −4.41 | Fold Change (Pre- to Post-op) (gene Pld4): −3.663 | Fold Change (Pre- to Post-op) (gene Plec): −6.896 | Fold Change (Pre- to Post-op) (gene Plekhg1): −3.043 | Fold Change (Pre- to Post-op) (gene Plekhg2): −5.53 | Fold Change (Pre- to Post-op) (gene Plekhm1): −3.803 | Fold Change (Pre- to Post-op) (gene Plod1): −3.51 | Fold Change (Pre- to Post-op) (gene Pltp): −3.34 | Fold Change (Pre- to Post-op) (gene Plvap): −3.756 | Fold Change (Pre- to Post-op) (gene Plxdc1): −3.304 | Fold Change (Pre- to Post-op) (gene Plxna1): −3.777 | Fold Change (Pre- to Post-op) (gene Plxna4): −7.249 | Fold Change (Pre- to Post-op) (gene Plxnd1): −5.727 | Fold Change (Pre- to Post-op) (gene Pml): −3.779 | Fold Change (Pre- to Post-op) (gene Pnliprp2): −4.604 | Fold Change (Pre- to Post-op) (gene Pnpla3): −9.606 | Fold Change (Pre- to Post-op) (gene Podxl): −4.473 | Fold Change (Pre- to Post-op) (gene Pogk): −4.38 | Fold Change (Pre- to Post-op) (gene Pogz): −3.485 | Fold Change (Pre- to Post-op) (gene Pole): −3.057 | Fold Change (Pre- to Post-op) (gene Polr1a): −3.227 | Fold Change (Pre- to Post-op) (gene Pom121): −4.661 | Fold Change (Pre- to Post-op) (gene Porcn): −4.398 | Fold Change (Pre- to Post-op) (gene Ppard): −4.207 | Fold Change (Pre- to Post-op) (gene Ppm1l): −3.399 | Fold Change (Pre- to Post-op) (gene Ppp1r3e): −6.615 | Fold Change (Pre- to Post-op) (gene Ppp1r9b): −4.154 | Fold Change (Pre- to Post-op) (gene Ppp1r12a): −3.393 | Fold Change (Pre- to Post-op) (gene Ppp1r12b): −4.323 | Fold Change (Pre- to Post-op) (gene Ppp1r26): −4.92 | Fold Change (Pre- to Post-op) (gene Ppp2r2c): −3.328 | Fold Change (Pre- to Post-op) (gene Prdm2): −3.47
